Here are results for one sequence from US20250154203 (published 2025).

End groups of sequences in plain letters are not given here.

A short description of data set [1]: general procedure: Fmoc solid-phase peptide synthesis; Wang-Resin. The settings on record: whole synthesis, area %; run 1.
A short description of data set [2]: general procedure: Fmoc solid-phase peptide synthesis; H-L-Asp(OtBu)-2CT-Resin. As to conditions: whole synthesis, area %; run 1.

As to DGSVVVNKVSELPAGHGLNVNTLSYGDLAAD, the “final HPLC purity” value was 89.84% in data set [1] and 96.51% in data set [2].
